According to publication PMC5418573:
No constants are given. Whether binding was seen depends on the method and setting. For part of these data: A result given as binding can be weak or reduced; the word gives no strength. For part of these data: Tags and fused reporters may be left off the sequences shown. For part of these data: Binding seen in cells or lysates may run through a third protein.

Protein sequences, listed by entry. Tags and fused reporters are not part of them. Lines headed by an entry give the natural chain unless they say otherwise; changes in a name come on top.
UniProt Q980X5: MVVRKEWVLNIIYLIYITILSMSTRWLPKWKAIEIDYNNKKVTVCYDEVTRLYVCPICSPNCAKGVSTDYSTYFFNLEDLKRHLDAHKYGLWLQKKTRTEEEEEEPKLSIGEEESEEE

Columns and labels:
[1] = target: T1, PolB1 of Sulfolobus solfataricus, endogenous (Sulfolobus solfataricus (endogenous in Sso cells)) (UniProt P26811); assay: co-IP; 100 μg Sso cell extract with anti-PolB1, PBP1 or PBP2 sera, nProtein A Sepharose, buffer C (20 mM Tris pH 7.5, 150 mM NaCl, 5 mM MgCl2, 10% glycerol, 1 mM DTT), room temperature; western blotting
T1 sequence: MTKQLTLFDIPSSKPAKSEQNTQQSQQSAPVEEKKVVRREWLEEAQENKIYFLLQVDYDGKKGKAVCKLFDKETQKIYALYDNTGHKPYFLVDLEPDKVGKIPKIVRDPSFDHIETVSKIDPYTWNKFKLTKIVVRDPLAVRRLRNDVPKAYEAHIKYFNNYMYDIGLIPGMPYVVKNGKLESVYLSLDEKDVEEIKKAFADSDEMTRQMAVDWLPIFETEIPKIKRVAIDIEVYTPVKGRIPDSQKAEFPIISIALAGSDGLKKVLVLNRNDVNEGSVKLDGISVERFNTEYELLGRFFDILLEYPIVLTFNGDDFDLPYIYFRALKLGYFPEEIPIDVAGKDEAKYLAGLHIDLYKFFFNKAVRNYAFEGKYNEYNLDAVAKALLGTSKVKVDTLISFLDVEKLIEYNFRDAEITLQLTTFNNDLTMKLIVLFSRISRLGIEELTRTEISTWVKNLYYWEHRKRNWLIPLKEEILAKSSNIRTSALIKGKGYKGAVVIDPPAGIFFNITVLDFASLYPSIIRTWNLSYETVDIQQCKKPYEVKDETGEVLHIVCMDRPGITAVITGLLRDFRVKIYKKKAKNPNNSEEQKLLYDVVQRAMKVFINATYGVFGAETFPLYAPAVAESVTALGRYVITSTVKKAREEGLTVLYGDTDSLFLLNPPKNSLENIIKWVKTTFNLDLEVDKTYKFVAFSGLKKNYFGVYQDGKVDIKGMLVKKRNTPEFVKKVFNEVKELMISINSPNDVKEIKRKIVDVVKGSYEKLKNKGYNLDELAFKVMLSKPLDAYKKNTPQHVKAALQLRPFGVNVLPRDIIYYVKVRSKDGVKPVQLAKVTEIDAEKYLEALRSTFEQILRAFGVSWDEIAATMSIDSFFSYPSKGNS

[2] = target: T1, PolB1 of Sulfolobus solfataricus, endogenous (Sulfolobus solfataricus (endogenous in Sso cells)); assay: SEC; Sso whole-cell extract treated with Benzonase and ethidium bromide, Superdex 200 HR 10/30 in 10 mM Tris pH 8.0, 150 mM NaCl; fractions western blotted; compared with recombinant proteins and holoenzyme
[3] = target: T2, recombinant PolB1 of Sulfolobus solfataricus (Sulfolobus solfataricus) (UniProt P26811); assay: negative-stain electron microscopy; PolB1:PBP1-ΔC:PBP2 with a primer–template DNA, gel filtered, 10 μg/ml, uranyl formate stain; 3D reconstruction at 20.2 Å compared with apo PolB1; both purified
T2 sequence: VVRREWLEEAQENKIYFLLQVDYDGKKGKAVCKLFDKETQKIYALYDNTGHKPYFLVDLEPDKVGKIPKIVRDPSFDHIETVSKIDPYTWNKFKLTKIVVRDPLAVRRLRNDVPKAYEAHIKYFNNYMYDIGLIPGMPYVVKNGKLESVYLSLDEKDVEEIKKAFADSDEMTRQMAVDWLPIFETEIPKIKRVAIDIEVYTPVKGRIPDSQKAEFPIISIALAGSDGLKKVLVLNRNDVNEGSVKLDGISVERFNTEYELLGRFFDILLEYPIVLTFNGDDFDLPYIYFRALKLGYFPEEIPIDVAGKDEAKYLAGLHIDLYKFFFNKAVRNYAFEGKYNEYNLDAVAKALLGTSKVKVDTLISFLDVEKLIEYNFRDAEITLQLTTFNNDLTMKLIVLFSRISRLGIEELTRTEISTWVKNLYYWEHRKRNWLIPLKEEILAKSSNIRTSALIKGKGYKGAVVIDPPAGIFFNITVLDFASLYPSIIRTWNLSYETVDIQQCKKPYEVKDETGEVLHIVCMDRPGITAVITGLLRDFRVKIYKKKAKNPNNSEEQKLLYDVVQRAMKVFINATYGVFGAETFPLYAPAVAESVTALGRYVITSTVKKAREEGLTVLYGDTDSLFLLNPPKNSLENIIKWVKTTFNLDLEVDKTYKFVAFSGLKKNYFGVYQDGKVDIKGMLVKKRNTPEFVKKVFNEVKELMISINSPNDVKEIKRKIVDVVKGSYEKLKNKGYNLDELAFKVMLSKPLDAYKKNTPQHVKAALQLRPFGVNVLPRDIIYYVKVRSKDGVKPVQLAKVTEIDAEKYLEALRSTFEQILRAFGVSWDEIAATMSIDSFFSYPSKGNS

[4] = target: T2, recombinant PolB1 of Sulfolobus solfataricus (Sulfolobus solfataricus); assay: cross-linking; 57 μM holoenzyme complex with 0.625 mM BS3 in 10 mM HEPES pH 7.5, 150 mM NaCl, room temperature 30 min; Ni-NTA under guanidine, SDS-PAGE bands analysed by mass spectrometry and western blotting; both purified
[5] = target: T2, recombinant PolB1 of Sulfolobus solfataricus (Sulfolobus solfataricus); assay: SEC; purified PBP1, PBP2 and PolB1 and combinations, 10 min at room temperature, Superdex 200 HR 10/30 in 20 mM Tris pH 8, 300 mM NaCl; fractions on SDS-PAGE; both purified
[6] = target: T3, MBP-tagged PolB1 thumb domain (residues 716–882) (Sulfolobus solfataricus) (UniProt P26811); assay: pull-down; MBP fusion protein on Amylose Resin beads with target protein in buffer A (10 mM HEPES pH 7.5, 100 mM NaCl, 1 mM DTT), room temperature 30 min; Coomassie or silver staining; both purified
T3 sequence: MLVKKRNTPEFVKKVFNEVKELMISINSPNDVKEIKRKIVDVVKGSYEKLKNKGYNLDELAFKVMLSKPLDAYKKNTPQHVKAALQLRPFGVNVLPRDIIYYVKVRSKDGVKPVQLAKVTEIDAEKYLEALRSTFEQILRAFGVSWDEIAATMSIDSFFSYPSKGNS

[7] = target: PBP2 of Sulfolobus solfataricus (SSO6202), endogenous (Sulfolobus solfataricus (endogenous in Sso cells)); assay: co-IP; 100 μg Sso cell extract with anti-PolB1, PBP1 or PBP2 sera, nProtein A Sepharose, buffer C (20 mM Tris pH 7.5, 150 mM NaCl, 5 mM MgCl2, 10% glycerol, 1 mM DTT), room temperature; western blotting
[8] = target: PBP1 of Sulfolobus solfataricus (SSO0150), endogenous (Sulfolobus solfataricus (endogenous in Sso cells)) (UniProt Q980X5); assay: as above
[9] = target: GST-PBP1 (Sulfolobus solfataricus) (UniProt Q980X5); assay: pull-down; GST-fusion protein on glutathione sepharose (~10 μg) and 10 μg of target in 100 μl TBST (10 mM Tris pH 8, 150 mM NaCl, 0.1% Tween 20), room temperature 30 min; Coomassie staining or western blotting; both purified
[10] = target: GST-PBP2 (Sulfolobus solfataricus); assay: as above

PBP1 of Sulfolobus solfataricus (SSO0150), endogenous (from UniProt Q980X5)
binding [1]: binds | binding [2]: binds

PBP1ΔC, PBP1 C-terminal tail deletion mutant (from UniProt Q980X5) (domain or fragment)
binding [3]: binds

PBP2 of Sulfolobus solfataricus (SSO6202), endogenous
binding [1]: binds | binding [2]: binds

recombinant PBP1 of Sulfolobus solfataricus (SSO0150) (from UniProt Q980X5)
binding [4]: binds | binding [5]: binds

recombinant PBP2 of Sulfolobus solfataricus (SSO6202)
binding [4]: binds | binding [6]: binds | binding [3]: binds | binding [5]: binds

B1: PolB1 of Sulfolobus solfataricus, endogenous (enzyme, UniProt P26811 1-882)
chain: MTKQLTLFDIPSSKPAKSEQNTQQSQQSAPVEEKKVVRREWLEEAQENKIYFLLQVDYDGKKGKAVCKLFDKETQKIYALYDNTGHKPYFLVDLEPDKVGKIPKIVRDPSFDHIETVSKIDPYTWNKFKLTKIVVRDPLAVRRLRNDVPKAYEAHIKYFNNYMYDIGLIPGMPYVVKNGKLESVYLSLDEKDVEEIKKAFADSDEMTRQMAVDWLPIFETEIPKIKRVAIDIEVYTPVKGRIPDSQKAEFPIISIALAGSDGLKKVLVLNRNDVNEGSVKLDGISVERFNTEYELLGRFFDILLEYPIVLTFNGDDFDLPYIYFRALKLGYFPEEIPIDVAGKDEAKYLAGLHIDLYKFFFNKAVRNYAFEGKYNEYNLDAVAKALLGTSKVKVDTLISFLDVEKLIEYNFRDAEITLQLTTFNNDLTMKLIVLFSRISRLGIEELTRTEISTWVKNLYYWEHRKRNWLIPLKEEILAKSSNIRTSALIKGKGYKGAVVIDPPAGIFFNITVLDFASLYPSIIRTWNLSYETVDIQQCKKPYEVKDETGEVLHIVCMDRPGITAVITGLLRDFRVKIYKKKAKNPNNSEEQKLLYDVVQRAMKVFINATYGVFGAETFPLYAPAVAESVTALGRYVITSTVKKAREEGLTVLYGDTDSLFLLNPPKNSLENIIKWVKTTFNLDLEVDKTYKFVAFSGLKKNYFGVYQDGKVDIKGMLVKKRNTPEFVKKVFNEVKELMISINSPNDVKEIKRKIVDVVKGSYEKLKNKGYNLDELAFKVMLSKPLDAYKKNTPQHVKAALQLRPFGVNVLPRDIIYYVKVRSKDGVKPVQLAKVTEIDAEKYLEALRSTFEQILRAFGVSWDEIAATMSIDSFFSYPSKGNS
binding [7]: binds | binding [8]: binds

B2: Y family lesion bypass DNA polymerase, Dpo4 (enzyme, UniProt Q97W02 1-352)
chain: MIVLFVDFDYFYAQVEEVLNPSLKGKPVVVCVFSGRFEDSGAVATANYEARKFGVKAGIPIVEAKKILPNAVYLPMRKEVYQQVSSRIMNLLREYSEKIEIASIDEAYLDISDKVRDYREAYNLGLEIKNKILEKEKITVTVGISKNKVFAKIAADMAKPNGIKVIDDEEVKRLIRELDIADVPGIGNITAEKLKKLGINKLVDTLSIEFDKLKGMIGEAKAKYLISLARDEYNEPIRTRVRKSIGRIVTMKRNSRNLEEIKPYLFRAIEESYYKLDKRIPKAIHVVAVTEDLDIVSRGRTFPHGISKETAYSESVKLLQKILEEDERKIRRIGVRFSKFIEAIGLDKFFDT
binding [9]: no binding (tested: 10 μg of target in 100 μl) | binding [10]: no binding (tested: 10 μg of target in 100 μl)
